# Experimental data taken from the supplement of paper PMC8728848.
# Some of the results follow.
# Key:
# Experiment in all cases: glycan array binding signal (z-score within array); higher = stronger binding
# Details in all cases: glycan notation: IUPAC condensed, linker removed
# [1] = molecular target: GlcNAc(b1-2)[GlcNAc(b1-4)]Man(a1-3)[GlcNAc(b1-4)][GlcNAc(b1-2)[GlcNAc(b1-6)]Man(a1-6)]Man(b1-4)GlcNAc(b1-4)GlcNAc
# In short: (§1)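 From the Consortium for Functional Glycomics database, 3228 arrays were curated, keeping only those whose protein sequence was available. Binding is given as a within-array Z-score averaged across arrays sharing a protein sequence and across linkers. Negative Z-scores can be read as non-binding.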
# [2] = molecular target: GlcNAc(b1-2)[GlcNAc(b1-4)]Man(a1-3)[GlcNAc(b1-4)][GlcNAc(b1-2)[GlcNAc(b1-6)]Man(a1-6)]Man(b1-4)GlcNAc(b1-4)[Fuc(a1-6)]GlcNAc
# In short: as §1
# [3] = molecular target: GlcNAc(b1-2)[GlcNAc(b1-6)]Man(a1-6)[GlcNAc(b1-2)Man(a1-3)]Man(b1-4)GlcNAc(b1-4)GlcNAc
# In short: as §1
# [4] = molecular target: GlcNAc(b1-2)[GlcNAc(b1-6)]Man(a1-6)[GlcNAc(b1-2)Man(a1-3)]Man(b1-4)GlcNAc(b1-4)[Fuc(a1-6)]GlcNAc
# In short: as §1
# [5] = molecular target: GlcNAc(b1-2)[GlcNAc(b1-6)]Man(a1-6)[GlcNAc(b1-4)][GlcNAc(b1-2)Man(a1-3)]Man(b1-4)GlcNAc(b1-4)GlcNAc
# In short: as §1
# [6] = molecular target: GlcNAc(b1-3)Fuc
# In short: as §1
# [7] = molecular target: GlcNAc(b1-3)Gal
# In short: as §1
# [8] = molecular target: GlcNAc(b1-3)Gal(b1-3)GalNAc
# In short: as §1
# [9] = molecular target: GlcNAc(b1-3)Gal(b1-4)Glc
# In short: as §1
# [10] = molecular target: GlcNAc(b1-3)Gal(b1-4)GlcNAc
# In short: as §1
# [11] = molecular target: GlcNAc(b1-3)Gal(b1-4)GlcNAc(b1-2)Man(a1-3)[GlcNAc(b1-3)Gal(b1-4)GlcNAc(b1-2)Man(a1-6)]Man(b1-4)GlcNAc(b1-4)GlcNAc
# In short: as §1
# [12] = molecular target: GlcNAc(b1-3)Gal(b1-4)GlcNAc(b1-2)Man(a1-3)[GlcNAc(b1-3)Gal(b1-4)GlcNAc(b1-2)Man(a1-6)]Man(b1-4)GlcNAc(b1-4)[Fuc(a1-6)]GlcNAc
# In short: as §1
# [13] = molecular target: GlcNAc(b1-3)Gal(b1-4)GlcNAc(b1-2)[GlcNAc(b1-3)Gal(b1-4)GlcNAc(b1-6)]Man(a1-6)[GlcNAc(b1-3)Gal(b1-4)GlcNAc(b1-2)Man(a1-3)]Man(b1-4)GlcNAc(b1-4)GlcNAc
# In short: as §1
# [14] = molecular target: GlcNAc(b1-3)Gal(b1-4)GlcNAc(b1-3)Gal(b1-4)GlcNAc
# In short: as §1
# [15] = molecular target: GlcNAc(b1-3)Gal(b1-4)GlcNAc(b1-3)Gal(b1-4)GlcNAc(b1-2)Man(a1-3)[GlcNAc(b1-3)Gal(b1-4)GlcNAc(b1-3)Gal(b1-4)GlcNAc(b1-2)Man(a1-6)]Man(b1-4)GlcNAc(b1-4)GlcNAc
# In short: as §1
# [16] = molecular target: GlcNAc(b1-3)Gal(b1-4)GlcNAc(b1-3)Gal(b1-4)GlcNAc(b1-2)Man(a1-3)[GlcNAc(b1-3)Gal(b1-4)GlcNAc(b1-3)Gal(b1-4)GlcNAc(b1-2)Man(a1-6)]Man(b1-4)GlcNAc(b1-4)[Fuc(a1-6)]GlcNAc
# In short: as §1
# [17] = molecular target: GlcNAc(b1-3)Gal(b1-4)GlcNAc(b1-3)Gal(b1-4)GlcNAc(b1-2)[GlcNAc(b1-3)Gal(b1-4)GlcNAc(b1-3)Gal(b1-4)GlcNAc(b1-6)]Man(a1-6)[GlcNAc(b1-3)Gal(b1-4)GlcNAc(b1-3)Gal(b1-4)GlcNAc(b1-2)Man(a1-3)]Man(b1-4)GlcNAc(b1-4)[Fuc(a1-6)]GlcNAc
# In short: as §1
# [18] = molecular target: GlcNAc(b1-3)Gal(b1-4)GlcNAc(b1-3)Gal(b1-4)GlcNAc(b1-3)Gal(b1-4)GlcNAc(b1-2)Man(a1-3)[GlcNAc(b1-3)Gal(b1-4)GlcNAc(b1-3)Gal(b1-4)GlcNAc(b1-3)Gal(b1-4)GlcNAc(b1-2)Man(a1-6)]Man(b1-4)GlcNAc(b1-4)GlcNAc
# In short: as §1
# [19] = molecular target: GlcNAc(b1-3)Gal(b1-4)GlcNAc(b1-3)Gal(b1-4)GlcNAc(b1-3)Gal(b1-4)GlcNAc(b1-2)Man(a1-3)[GlcNAc(b1-3)Gal(b1-4)GlcNAc(b1-3)Gal(b1-4)GlcNAc(b1-3)Gal(b1-4)GlcNAc(b1-2)Man(a1-6)]Man(b1-4)GlcNAc(b1-4)[Fuc(a1-6)]GlcNAc
# In short: as §1
# [20] = molecular target: GlcNAc(b1-3)Gal(b1-4)GlcNAc(b1-3)Gal(b1-4)GlcNAc(b1-3)Gal(b1-4)GlcNAc(b1-2)[GlcNAc(b1-3)Gal(b1-4)GlcNAc(b1-3)Gal(b1-4)GlcNAc(b1-3)Gal(b1-4)GlcNAc(b1-6)]Man(a1-6)[GlcNAc(b1-3)Gal(b1-4)GlcNAc(b1-3)Gal(b1-4)GlcNAc(b1-3)Gal(b1-4)GlcNAc(b1-2)Man(a1-3)]Man(b1-4)GlcNAc(b1-4)[Fuc(a1-6)]GlcNAc
# In short: as §1
# [21] = molecular target: GlcNAc(b1-3)Gal(b1-4)GlcNAc(b1-3)Gal(b1-4)GlcNAc(b1-3)Gal(b1-4)GlcNAc(b1-3)Gal(b1-4)GlcNAc(b1-2)Man(a1-3)[GlcNAc(b1-3)Gal(b1-4)GlcNAc(b1-3)Gal(b1-4)GlcNAc(b1-3)Gal(b1-4)GlcNAc(b1-3)Gal(b1-4)GlcNAc(b1-2)Man(a1-6)]Man(b1-4)GlcNAc(b1-4)GlcNAc
# In short: as §1
# [22] = molecular target: GlcNAc(b1-3)Gal(b1-4)GlcNAc(b1-3)Gal(b1-4)GlcNAc(b1-3)Gal(b1-4)GlcNAc(b1-3)Gal(b1-4)GlcNAc(b1-2)Man(a1-3)[GlcNAc(b1-3)Gal(b1-4)GlcNAc(b1-3)Gal(b1-4)GlcNAc(b1-3)Gal(b1-4)GlcNAc(b1-3)Gal(b1-4)GlcNAc(b1-2)Man(a1-6)]Man(b1-4)GlcNAc(b1-4)[Fuc(a1-6)]GlcNAc
# In short: as §1
# [23] = molecular target: GlcNAc(b1-3)Gal(b1-4)GlcNAc(b1-3)Gal(b1-4)GlcNAc(b1-3)Gal(b1-4)GlcNAc(b1-3)Gal(b1-4)GlcNAc(b1-2)[GlcNAc(b1-3)Gal(b1-4)GlcNAc(b1-3)Gal(b1-4)GlcNAc(b1-3)Gal(b1-4)GlcNAc(b1-3)Gal(b1-4)GlcNAc(b1-6)]Man(a1-6)[GlcNAc(b1-3)Gal(b1-4)GlcNAc(b1-3)Gal(b1-4)GlcNAc(b1-3)Gal(b1-4)GlcNAc(b1-3)Gal(b1-4)GlcNAc(b1-2)Man(a1-3)]Man(b1-4)GlcNAc(b1-4)[Fuc(a1-6)]GlcNAc
# In short: as §1
# [24] = molecular target: GlcNAc(b1-3)Gal(b1-4)GlcNAc(b1-3)Gal(b1-4)GlcNAc(b1-3)GalNAc
# In short: as §1
# [25] = molecular target: GlcNAc(b1-3)Gal(b1-4)GlcNAc(b1-3)GalNAc
# In short: as §1
# [26] = molecular target: GlcNAc(b1-3)Gal(b1-4)GlcNAc(b1-3)[GlcNAc(b1-3)Gal(b1-4)GlcNAc(b1-3)]GalNAc
# In short: as §1
# [27] = molecular target: GlcNAc(b1-3)Gal(b1-4)GlcNAc(b1-6)[Gal(b1-3)]GalNAc
# In short: as §1
# [28] = molecular target: GlcNAc(b1-3)Gal(b1-4)GlcNAc(b1-6)[GlcNAc(b1-3)Gal(b1-3)]GalNAc
# In short: as §1
# [29] = molecular target: GlcNAc(b1-3)Gal(b1-4)GlcNAc(b1-6)[GlcNAc(b1-3)]Gal(b1-4)GlcNAc
# In short: as §1
# [30] = molecular target: GlcNAc(b1-3)GalNAc
# In short: as §1
# [31] = molecular target: GlcNAc(b1-3)Man
# In short: as §1
# [32] = molecular target: GlcNAc(b1-3)[GlcNAc(b1-4)][GlcNAc(b1-6)]GlcNAc
# In short: as §1
# [33] = molecular target: GlcNAc(b1-3)[GlcNAc(b1-6)]Gal(b1-4)GlcNAc
# In short: as §1
# [34] = molecular target: GlcNAc(b1-3)[GlcNAc(b1-6)]GalNAc
# In short: as §1
# [35] = molecular target: GlcNAc(b1-4)Gal(b1-4)GlcNAc
# In short: as §1
# [36] = molecular target: GlcNAc(b1-4)GlcNAc
# In short: as §1
# [37] = molecular target: GlcNAc(b1-4)GlcNAc(b1-4)GlcNAc
# In short: as §1
# [38] = molecular target: GlcNAc(b1-4)GlcNAc(b1-4)GlcNAc(b1-4)GlcNAc(b1-4)GlcNAc
# In short: as §1
binder,measurement,setting,value
"HopZSSI-T (Helicobacter pylori), B5Z6D0 (protein) MGSSHHHHHHSSGLVPRGSHMENLYFQGEDNGFFISAGYQIGEAAQMVKNTGELKKLSDTYENLSNLLTNFNNLNQAVTNASSPSEINAAIDNLKANTQGLTGEKTNSPAYQAVYLALNAAVGLWNVIAYNVQCGPGNSSQQSVTFEGQPGHNSSSINCNLTGYNNGVSGPLSIDNFKQLNQAYQVLQQALKQGVPVLNNTNQKIEVKVTTQTNGQSSKETTTTTTTNDAQTLLQEASKMIDVLTTNCPWVNHNPGQNGGAPWGLIRQECVSGFATEFSAVTSMIKNAQEIVTQAQSLNANQNNQNAPQDFNPYTSADRAFAQNMLNHAQAQAKILELADQMKKDLNTIPSQFITNYLAACRIDGTTPSQGVTNNTWGAGCAYVEETITALNNSLAHFGTQAEQIKQSELLARTILDFRGSLSTLNSTYNSITTTASNTPNSPFLKNLISQSTNPNNPGGLQAVYQVNQSAYSQLLSATQELGHNPFRRIGLISSQT",glycan array binding signal (z-score),[1],-0.284
same,glycan array binding signal (z-score),[2],-0.83
same,glycan array binding signal (z-score),[3],-0.316
same,glycan array binding signal (z-score),[4],0.729
same,glycan array binding signal (z-score),[5],1.05
same,glycan array binding signal (z-score),[6],-0.424
same,glycan array binding signal (z-score),[7],0.472
same,glycan array binding signal (z-score),[8],-0.208
same,glycan array binding signal (z-score),[9],0.528
same,glycan array binding signal (z-score),[10],-0.706
same,glycan array binding signal (z-score),[11],-0.171
same,glycan array binding signal (z-score),[12],0.195
same,glycan array binding signal (z-score),[13],0.126
same,glycan array binding signal (z-score),[14],-0.437
same,glycan array binding signal (z-score),[15],1.48
same,glycan array binding signal (z-score),[16],0.471
same,glycan array binding signal (z-score),[17],-0.212
same,glycan array binding signal (z-score),[18],0.513
same,glycan array binding signal (z-score),[19],1.5
same,glycan array binding signal (z-score),[20],1.12
same,glycan array binding signal (z-score),[21],0.076
same,glycan array binding signal (z-score),[22],0.279
same,glycan array binding signal (z-score),[23],0.43
same,glycan array binding signal (z-score),[24],0.308
same,glycan array binding signal (z-score),[25],-0.169
same,glycan array binding signal (z-score),[26],-0.515
same,glycan array binding signal (z-score),[27],-0.607
same,glycan array binding signal (z-score),[28],0.446
same,glycan array binding signal (z-score),[29],-0.127
same,glycan array binding signal (z-score),[30],-0.558
same,glycan array binding signal (z-score),[31],0.121
same,glycan array binding signal (z-score),[32],-0.47
same,glycan array binding signal (z-score),[33],-0.5
same,glycan array binding signal (z-score),[34],-0.108
same,glycan array binding signal (z-score),[35],-0.41
same,glycan array binding signal (z-score),[36],-0.456
same,glycan array binding signal (z-score),[37],-0.451
same,glycan array binding signal (z-score),[38],-0.8

# Fetched one by one from above (three):
binder,measurement,setting,value
"HopZSSI-T (Helicobacter pylori), B5Z6D0 (protein) MGSSHHHHHHSSGLVPRGSHMENLYFQGEDNGFFISAGYQIGEAAQMVKNTGELKKLSDTYENLSNLLTNFNNLNQAVTNASSPSEINAAIDNLKANTQGLTGEKTNSPAYQAVYLALNAAVGLWNVIAYNVQCGPGNSSQQSVTFEGQPGHNSSSINCNLTGYNNGVSGPLSIDNFKQLNQAYQVLQQALKQGVPVLNNTNQKIEVKVTTQTNGQSSKETTTTTTTNDAQTLLQEASKMIDVLTTNCPWVNHNPGQNGGAPWGLIRQECVSGFATEFSAVTSMIKNAQEIVTQAQSLNANQNNQNAPQDFNPYTSADRAFAQNMLNHAQAQAKILELADQMKKDLNTIPSQFITNYLAACRIDGTTPSQGVTNNTWGAGCAYVEETITALNNSLAHFGTQAEQIKQSELLARTILDFRGSLSTLNSTYNSITTTASNTPNSPFLKNLISQSTNPNNPGGLQAVYQVNQSAYSQLLSATQELGHNPFRRIGLISSQT",glycan array binding signal (z-score),[10],-0.706
same,glycan array binding signal (z-score),[8],-0.208
same,glycan array binding signal (z-score),[15],1.48
